Paper PMC4742757, “The Prodomain-bound Form of Bone Morphogenetic Protein 10 Is Biologically Active on Endothelial Cells*” (The Journal of Biological Chemistry, 2015)
These are yes or no findings as the source states them, for the method shown. A result given as binding can be weak or reduced; the word gives no strength.

Molecular target: T1, BMP10 growth factor domain secreted from mouse right atrium (mouse (endogenous in right atrium)) (UniProt Q9R229)
T1 sequence: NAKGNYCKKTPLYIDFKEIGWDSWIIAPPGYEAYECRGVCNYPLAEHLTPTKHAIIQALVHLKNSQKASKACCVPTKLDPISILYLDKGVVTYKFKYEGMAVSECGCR
Test: ELISA; sandwich ELISA on undiluted Superdex 200 fractions (PBS) of mouse right atrium conditioned medium: capture by coated anti-BMP10 monoclonal antibody, detection by biotinylated anti-BMP10 propeptide antibody

BMP10 prodomain secreted from mouse right atrium (domain or fragment)
binding: binds
